Literature values in patent EP4035684A1, “AFFINITY ILLUDOFULVENE CONJUGATES” (AF Chemical LLC, priority 2019, dated 2022).
The name of at least one read-out is uncertain.

Tested on: NCI 60 cell line panel
Conditions: read-out: Mean LD50 cytotoxic; mean over NCI DTP 60 cell lines; cited from earlier work

Row | Structure (SMILES) | CC50
1 | COc1cc2cc(c1Cl)N(C)C(=O)C[C@H](OC(=O)[C@H](C)N(C)C(C)=O)[C@]1(C)O[C@H]1[C@H](C)[C@@H]1C[C@@](O)(NC(=O)O1)[C@H](OC)/C=C/C=C(\C)C2 [Maytansine] | 49.2 µM
2 | C=C1C[C@H]2C=Nc3cc(OCCCOc4cc5c(cc4OC)C(=O)N4CC(=C)C[C@H]4C=N5)c(OC)cc3C(=O)N2C1 [Pyrrolobenzodiazepines] | > 23 µM
